The text below walks through data of article PMC12059206.

The chains behind the UniProt entries cited, without tags or fusion partners.
UniProt Q06413: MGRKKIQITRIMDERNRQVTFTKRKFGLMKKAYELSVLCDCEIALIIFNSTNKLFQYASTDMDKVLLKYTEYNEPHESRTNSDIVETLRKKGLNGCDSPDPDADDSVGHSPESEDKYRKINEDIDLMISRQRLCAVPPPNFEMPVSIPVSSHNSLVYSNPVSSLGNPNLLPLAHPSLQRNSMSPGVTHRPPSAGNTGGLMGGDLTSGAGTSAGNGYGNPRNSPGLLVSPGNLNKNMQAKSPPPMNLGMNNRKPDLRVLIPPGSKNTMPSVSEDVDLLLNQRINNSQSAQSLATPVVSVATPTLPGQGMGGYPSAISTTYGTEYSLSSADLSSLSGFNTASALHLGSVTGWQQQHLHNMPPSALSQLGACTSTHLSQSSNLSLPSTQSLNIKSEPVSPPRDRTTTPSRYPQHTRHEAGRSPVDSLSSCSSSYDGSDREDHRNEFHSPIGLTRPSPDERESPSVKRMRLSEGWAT

Results are given in words; binding and its absence hold for the method and conditions named. In cells and extracts the contact can be indirect. These calls come from enrichment with a bait or labelling near it, and not all partners need be listed. Sequences can lack the tags named with a protein.

The assay addresses T1, FLAG-tagged SENP1 (UniProt Q9P0U3).
T1 sequence: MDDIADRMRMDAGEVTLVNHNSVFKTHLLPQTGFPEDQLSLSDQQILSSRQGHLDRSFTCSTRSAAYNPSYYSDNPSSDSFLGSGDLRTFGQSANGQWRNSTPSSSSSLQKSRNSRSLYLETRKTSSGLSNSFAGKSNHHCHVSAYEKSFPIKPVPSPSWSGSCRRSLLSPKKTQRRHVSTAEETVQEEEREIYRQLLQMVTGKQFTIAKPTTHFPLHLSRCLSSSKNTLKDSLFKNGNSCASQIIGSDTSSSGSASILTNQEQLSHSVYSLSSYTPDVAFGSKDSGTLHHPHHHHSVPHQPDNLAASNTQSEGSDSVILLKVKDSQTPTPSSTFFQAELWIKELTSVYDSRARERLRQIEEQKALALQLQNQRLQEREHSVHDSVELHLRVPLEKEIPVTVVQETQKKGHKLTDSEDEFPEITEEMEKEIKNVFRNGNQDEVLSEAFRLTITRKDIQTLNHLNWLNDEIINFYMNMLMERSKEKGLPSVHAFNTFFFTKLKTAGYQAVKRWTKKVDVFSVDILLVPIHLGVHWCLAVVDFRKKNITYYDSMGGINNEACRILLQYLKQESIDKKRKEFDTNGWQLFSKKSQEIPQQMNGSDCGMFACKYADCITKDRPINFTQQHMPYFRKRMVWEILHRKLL
As to the kind of experiment: affinity purification with mass spectrometry; FLAG-tagged SENP1 overexpressed in HEK293T cells; SENP1 complex immunoprecipitated by FLAG, silver staining, mass spectrometry.

Turning to MEF2C (from UniProt Q06413 1-473), the binding result is given as “binds”.
